According to patent US20060063228A1:
These are yes or no findings as the source states them, for the method shown. Some binding calls cover weakened binding; strength is not graded here. For part of these data: Sequences can lack the tags named with a protein.

Sequences of proteins named here, by UniProt entry; tags and fusion partners are left off. A change or cut given only in a name is not applied to a line headed by its entry.
UniProt P35225: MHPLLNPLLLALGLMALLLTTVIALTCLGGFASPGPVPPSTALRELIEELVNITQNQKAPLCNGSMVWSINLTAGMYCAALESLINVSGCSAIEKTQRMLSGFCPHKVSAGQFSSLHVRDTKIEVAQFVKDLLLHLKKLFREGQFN

Experiments:
[1] = target: T1, IL-13Rα1 monomer (UniProt P78552); assay: BIACORE; IL-13Rα1 monomer immobilized
T1 sequence (looked up): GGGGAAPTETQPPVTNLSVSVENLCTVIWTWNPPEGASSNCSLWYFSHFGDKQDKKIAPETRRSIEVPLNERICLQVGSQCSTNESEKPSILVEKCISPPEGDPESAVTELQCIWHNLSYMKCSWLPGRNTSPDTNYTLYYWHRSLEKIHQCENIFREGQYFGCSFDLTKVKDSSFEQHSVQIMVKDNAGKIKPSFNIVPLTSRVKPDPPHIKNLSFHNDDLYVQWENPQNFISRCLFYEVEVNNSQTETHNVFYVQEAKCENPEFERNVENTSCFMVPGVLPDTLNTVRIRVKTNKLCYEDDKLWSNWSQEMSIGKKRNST

[2] = target: T2, IL-13Rα1 (UniProt P78552); assay: BIACORE; complex formed in solution
T2 sequence (looked up): T1 sequence (looked up)

[3] = target: T3, IL-13Rα1-Fc (UniProt P78552); assay: BIACORE; IL-13Rα1-Fc immobilized
T3 sequence (looked up): T1 sequence (looked up)

binding [1]: binds
binding [2]: binds
binding [3]: binds
Substance: recombinant human IL-13 (from UniProt P35225 34-146) (ligand)
